In patent publication US8193221B2, “Insecticidal compounds” (Syngenta Crop Protection LLC, priority 2007, dated 2012):
Some of these results come from one statement about several compounds together.

Tests used:
Type in all cases: in vivo
Heliothis virescens = Heliothis virescens (tobacco budworm) egg test on artificial diet; conditions: 200 ppm (18 ppm in well), eggs 0-24 h old on artificial diet, egg/larval mortality and growth regulation after 4 days
Experimental: Heliothis virescens (Tobacco Budworm):
Eggs (0-24 h old) were placed in 24-well microtiter plate on artificial diet and treated with test solutions at an application rate of 200 ppm (concentration in well 18 ppm) by pipetting. After an incubation period of 4 days, samples were checked for egg mortality, larval mortality, and growth regulation.

Plutella xylostella = Plutella xylostella (diamond back moth) larval test on artificial diet; conditions: 200 ppm (18 ppm in well), L2 larvae, larval mortality and growth regulation after 6 days
Experimental: Plutella xylostella (Diamond Back Moth):
(§1) 24-well microtiter plate (MTP) with artificial diet was treated with test solutions at an application rate of 200 ppm (concentration in well 18 ppm) by pipetting. After drying, the MTP's were infested with L2 larvae (7-12 per well). After an incubation period of 6 days, samples were checked for larval mortality and growth regulation.

Diabrotica balteata = Diabrotica balteata (corn root worm) larval test on artificial diet; conditions: 200 ppm (18 ppm in well), L2 larvae, larval mortality and growth regulation after 5 days
Experimental: Diabrotica balteata (Corn Root Worm):
as §1, with “A 24-well” for “24-well”, “(6-10” for “(7-12”, “5” for “6”

Thrips tabaci = Thrips tabaci (onion thrips) sunflower leaf disc spray test; conditions: 200 ppm sprayed on sunflower leaf discs, population of mixed ages, mortality after 7 days
Experimental: Thrips tabaci (Onion Trips):
Sunflower leaf discs were placed on agar in a 24-well microtiter plate and sprayed with test solutions at an application rate of 200 ppm. After drying, the leaf discs were infested with an […] population of mixed ages. After an incubation period of 7 days, samples were checked for mortality.

SMILES | control of Heliothis virescens (Heliothis virescens) | control of Plutella xylostella (Plutella xylostella) | control of Diabrotica balteata (Diabrotica balteata) | control of Thrips tabaci (Thrips tabaci)
Cc1cc(C2=NOC(c3cc(Cl)cc(Cl)c3)(C(F)(F)F)C2)ccc1/C(N)=N/O (centres unmarked) [Compound A1, 4-[5-(3,5-dichloro-phenyl)-5-trifluoromethyl-4,5-dihydro-isoxazol-3-yl]-N-hydroxy-2-methyl-benzamidine] | at least 80% | at least 80% | at least 80% | at least 80%
[H]/N=C(\NOCCCC)c1ccc(C2=NOC(c3cc(Cl)cc(Cl)c3)(C(F)(F)F)C2)cc1C (centres unmarked) [Compound A6] | – | at least 80% | at least 80% | –
[H]/N=C(\NOCC)c1ccc(C2=NOC(c3cc(Cl)cc(Cl)c3)(C(F)(F)F)C2)cc1C (centres unmarked) [Compound A4] | – | at least 80% | at least 80% | at least 80%
[H]/N=C(\NOCC#CC)c1ccc(C2=NOC(c3cc(Cl)cc(Cl)c3)(C(F)(F)F)C2)cc1C (centres unmarked) [Compound A25] | – | at least 80% | at least 80% | at least 80%
[H]/N=C(\NOC)c1ccc(C2=NOC(c3cc(Cl)cc(Cl)c3)(C(F)(F)F)C2)cc1C (centres unmarked) [Compound A3] | at least 80% | at least 80% | at least 80% | at least 80%
[H]/N=C(\NOCCC)c1ccc(C2=NOC(c3cc(Cl)cc(Cl)c3)(C(F)(F)F)C2)cc1C (centres unmarked) [Compound A27] | – | – | at least 80% | –
